# Experimental data published in the supplement of paper PMC8728848.
# Some of the results follow.
# B1: SspB C123 (Streptococcus gordonii), Q54186 (protein)
# chain: MAHFHYSSLLAQPQINKEIKNEDGVDIDRTLVAKQSIGKFELKTEALTAGRPKTTSFVLVDPLPTGYKFDLDATKAASTGFDTTYDEASHTVTFKATDETLATYNADLTKPVETLHPTVVGRVLNDGATYTNNFTLTVNDAYGIKSNVVRVTTPGKPNDPDNPNNNYIKPTKVNKNKEGLNIDGKEVLAGSTNYYELTWDLDQYKGDKSSKEAIQNGFYYVDDYPEEALDVRPDLVKVADEKGNQVSGVSVQQYDSLEAAPKKVQDLLKKANITVKGAFQLFSADNPEEFYKQYVSTGTSLVITDPMTVKSEFGKTGGKYENKAYQIDFGNGYATEVVVNNVPKITPKKDVTVSLDPTSENLDGQTVQLYQTFNYRLIGGFIPQNHSEELEDYSFVDDYDQAGDQYTGNYKTFSSLNLTMKDGSVIKAGTDLTSQTTAETDATNGIVTVRFKEDFLQKISLDSPFQAETYLQMRRIAIGTFENTYVNTVNKVAYASAAALEHHHHHH
# Columns and labels:
# Experiment in all cases: glycan array binding signal (z-score within array); higher = stronger binding
# Conditions in all cases: glycan notation: IUPAC condensed, linker removed
# [1] = biological target: GlcNAc(b1-3)Gal(b1-4)Glc
# Procedure, shortened: (§1)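 Negative Z-scores can be read as non-binding. The Z-score is calculated within each array and then averaged across arrays of one protein sequence at different concentrations or buffers and across linkers. Arrays, 3228 in all, were curated from the Consortium for Functional Glycomics database and kept only where the protein sequence was available.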
# [2] = biological target: GlcNAc(b1-3)Gal(b1-4)GlcNAc
# Procedure, shortened: as §1
# [3] = biological target: GlcNAc(b1-3)Gal(b1-4)GlcNAc(b1-2)Man(a1-3)[GlcNAc(b1-3)Gal(b1-4)GlcNAc(b1-2)Man(a1-6)]Man(b1-4)GlcNAc(b1-4)GlcNAc
# Procedure, shortened: as §1
# [4] = biological target: GlcNAc(b1-3)Gal(b1-4)GlcNAc(b1-2)Man(a1-3)[GlcNAc(b1-3)Gal(b1-4)GlcNAc(b1-2)Man(a1-6)]Man(b1-4)GlcNAc(b1-4)[Fuc(a1-6)]GlcNAc
# Procedure, shortened: as §1
# [5] = biological target: GlcNAc(b1-3)Gal(b1-4)GlcNAc(b1-2)[GlcNAc(b1-3)Gal(b1-4)GlcNAc(b1-6)]Man(a1-6)[GlcNAc(b1-3)Gal(b1-4)GlcNAc(b1-2)Man(a1-3)]Man(b1-4)GlcNAc(b1-4)GlcNAc
# Procedure, shortened: as §1
# [6] = biological target: GlcNAc(b1-3)Gal(b1-4)GlcNAc(b1-3)Gal(b1-4)GlcNAc
# Procedure, shortened: as §1
# [7] = biological target: GlcNAc(b1-3)Gal(b1-4)GlcNAc(b1-3)Gal(b1-4)GlcNAc(b1-2)Man(a1-3)[GlcNAc(b1-3)Gal(b1-4)GlcNAc(b1-3)Gal(b1-4)GlcNAc(b1-2)Man(a1-6)]Man(b1-4)GlcNAc(b1-4)GlcNAc
# Procedure, shortened: as §1
# [8] = biological target: GlcNAc(b1-3)Gal(b1-4)GlcNAc(b1-3)Gal(b1-4)GlcNAc(b1-2)Man(a1-3)[GlcNAc(b1-3)Gal(b1-4)GlcNAc(b1-3)Gal(b1-4)GlcNAc(b1-2)Man(a1-6)]Man(b1-4)GlcNAc(b1-4)[Fuc(a1-6)]GlcNAc
# Procedure, shortened: as §1
# [9] = biological target: GlcNAc(b1-3)Gal(b1-4)GlcNAc(b1-3)Gal(b1-4)GlcNAc(b1-2)[GlcNAc(b1-3)Gal(b1-4)GlcNAc(b1-3)Gal(b1-4)GlcNAc(b1-6)]Man(a1-6)[GlcNAc(b1-3)Gal(b1-4)GlcNAc(b1-3)Gal(b1-4)GlcNAc(b1-2)Man(a1-3)]Man(b1-4)GlcNAc(b1-4)[Fuc(a1-6)]GlcNAc
# Procedure, shortened: as §1
# [10] = biological target: GlcNAc(b1-3)Gal(b1-4)GlcNAc(b1-3)Gal(b1-4)GlcNAc(b1-3)Gal(b1-4)GlcNAc(b1-2)Man(a1-3)[GlcNAc(b1-3)Gal(b1-4)GlcNAc(b1-3)Gal(b1-4)GlcNAc(b1-3)Gal(b1-4)GlcNAc(b1-2)Man(a1-6)]Man(b1-4)GlcNAc(b1-4)GlcNAc
# Procedure, shortened: as §1
# [11] = biological target: GlcNAc(b1-3)Gal(b1-4)GlcNAc(b1-3)Gal(b1-4)GlcNAc(b1-3)Gal(b1-4)GlcNAc(b1-2)Man(a1-3)[GlcNAc(b1-3)Gal(b1-4)GlcNAc(b1-3)Gal(b1-4)GlcNAc(b1-3)Gal(b1-4)GlcNAc(b1-2)Man(a1-6)]Man(b1-4)GlcNAc(b1-4)[Fuc(a1-6)]GlcNAc
# Procedure, shortened: as §1
# [12] = biological target: GlcNAc(b1-3)Gal(b1-4)GlcNAc(b1-3)Gal(b1-4)GlcNAc(b1-3)Gal(b1-4)GlcNAc(b1-2)[GlcNAc(b1-3)Gal(b1-4)GlcNAc(b1-3)Gal(b1-4)GlcNAc(b1-3)Gal(b1-4)GlcNAc(b1-6)]Man(a1-6)[GlcNAc(b1-3)Gal(b1-4)GlcNAc(b1-3)Gal(b1-4)GlcNAc(b1-3)Gal(b1-4)GlcNAc(b1-2)Man(a1-3)]Man(b1-4)GlcNAc(b1-4)[Fuc(a1-6)]GlcNAc
# Procedure, shortened: as §1
# [13] = biological target: GlcNAc(b1-3)Gal(b1-4)GlcNAc(b1-3)Gal(b1-4)GlcNAc(b1-3)Gal(b1-4)GlcNAc(b1-3)Gal(b1-4)GlcNAc(b1-2)Man(a1-3)[GlcNAc(b1-3)Gal(b1-4)GlcNAc(b1-3)Gal(b1-4)GlcNAc(b1-3)Gal(b1-4)GlcNAc(b1-3)Gal(b1-4)GlcNAc(b1-2)Man(a1-6)]Man(b1-4)GlcNAc(b1-4)GlcNAc
# Procedure, shortened: as §1
# [14] = biological target: GlcNAc(b1-3)Gal(b1-4)GlcNAc(b1-3)Gal(b1-4)GlcNAc(b1-3)Gal(b1-4)GlcNAc(b1-3)Gal(b1-4)GlcNAc(b1-2)Man(a1-3)[GlcNAc(b1-3)Gal(b1-4)GlcNAc(b1-3)Gal(b1-4)GlcNAc(b1-3)Gal(b1-4)GlcNAc(b1-3)Gal(b1-4)GlcNAc(b1-2)Man(a1-6)]Man(b1-4)GlcNAc(b1-4)[Fuc(a1-6)]GlcNAc
# Procedure, shortened: as §1
# [15] = biological target: GlcNAc(b1-3)Gal(b1-4)GlcNAc(b1-3)Gal(b1-4)GlcNAc(b1-3)Gal(b1-4)GlcNAc(b1-3)Gal(b1-4)GlcNAc(b1-2)[GlcNAc(b1-3)Gal(b1-4)GlcNAc(b1-3)Gal(b1-4)GlcNAc(b1-3)Gal(b1-4)GlcNAc(b1-3)Gal(b1-4)GlcNAc(b1-6)]Man(a1-6)[GlcNAc(b1-3)Gal(b1-4)GlcNAc(b1-3)Gal(b1-4)GlcNAc(b1-3)Gal(b1-4)GlcNAc(b1-3)Gal(b1-4)GlcNAc(b1-2)Man(a1-3)]Man(b1-4)GlcNAc(b1-4)[Fuc(a1-6)]GlcNAc
# Procedure, shortened: as §1
# [16] = biological target: GlcNAc(b1-3)Gal(b1-4)GlcNAc(b1-3)Gal(b1-4)GlcNAc(b1-3)GalNAc
# Procedure, shortened: as §1
# [17] = biological target: GlcNAc(b1-3)Gal(b1-4)GlcNAc(b1-3)GalNAc
# Procedure, shortened: as §1
# [18] = biological target: GlcNAc(b1-3)Gal(b1-4)GlcNAc(b1-3)[GlcNAc(b1-3)Gal(b1-4)GlcNAc(b1-3)]GalNAc
# Procedure, shortened: as §1
# [19] = biological target: GlcNAc(b1-3)Gal(b1-4)GlcNAc(b1-6)[Gal(b1-3)]GalNAc
# Procedure, shortened: as §1
# [20] = biological target: GlcNAc(b1-3)Gal(b1-4)GlcNAc(b1-6)[GlcNAc(b1-3)Gal(b1-3)]GalNAc
# Procedure, shortened: as §1
# [21] = biological target: GlcNAc(b1-3)Gal(b1-4)GlcNAc(b1-6)[GlcNAc(b1-3)]Gal(b1-4)GlcNAc
# Procedure, shortened: as §1
# [22] = biological target: GlcNAc(b1-3)GalNAc
# Procedure, shortened: as §1
# [23] = biological target: GlcNAc(b1-3)Man
# Procedure, shortened: as §1
# [24] = biological target: GlcNAc(b1-3)[GlcNAc(b1-4)][GlcNAc(b1-6)]GlcNAc
# Procedure, shortened: as §1
# [25] = biological target: GlcNAc(b1-3)[GlcNAc(b1-6)]Gal(b1-4)GlcNAc
# Procedure, shortened: as §1
# [26] = biological target: GlcNAc(b1-3)[GlcNAc(b1-6)]GalNAc
# Procedure, shortened: as §1
# [27] = biological target: GlcNAc(b1-4)Gal(b1-4)GlcNAc
# Procedure, shortened: as §1
# [28] = biological target: GlcNAc(b1-4)GlcNAc
# Procedure, shortened: as §1
# [29] = biological target: GlcNAc(b1-4)GlcNAc(b1-4)GlcNAc
# Procedure, shortened: as §1
# [30] = biological target: GlcNAc(b1-4)GlcNAc(b1-4)GlcNAc(b1-4)GlcNAc(b1-4)GlcNAc
# Procedure, shortened: as §1
# [31] = biological target: GlcNAc(b1-4)GlcNAc(b1-4)GlcNAc(b1-4)GlcNAc(b1-4)GlcNAc(b1-4)GlcNAc
# Procedure, shortened: as §1
# [32] = biological target: GlcNAc(b1-4)[GlcNAc(b1-6)]GalNAc
# Procedure, shortened: as §1
# [33] = biological target: GlcNAc(b1-6)Gal(b1-4)GlcNAc
# Procedure, shortened: as §1
# [34] = biological target: GlcNAc(b1-6)GalNAc
# Procedure, shortened: as §1
# [35] = biological target: GlcNAc6S(b1-3)Gal(b1-4)GlcNAc
# Procedure, shortened: as §1
# [36] = biological target: Kdn(a2-3)Gal(b1-3)GalNAc
# Procedure, shortened: as §1
# [37] = biological target: Kdn(a2-3)Gal(b1-3)GlcNAc
# Procedure, shortened: as §1
binder,measurement,setting,value
B1,glycan array binding signal (z-score),[1],0.216
same,glycan array binding signal (z-score),[2],-1.06
same,glycan array binding signal (z-score),[3],-0.235
same,glycan array binding signal (z-score),[4],-0.345
same,glycan array binding signal (z-score),[5],1.16
same,glycan array binding signal (z-score),[6],-0.453
same,glycan array binding signal (z-score),[7],-0.12
same,glycan array binding signal (z-score),[8],0.678
same,glycan array binding signal (z-score),[9],0.558
same,glycan array binding signal (z-score),[10],0.327
same,glycan array binding signal (z-score),[11],0.372
same,glycan array binding signal (z-score),[12],-0.324
same,glycan array binding signal (z-score),[13],1
same,glycan array binding signal (z-score),[14],-0.074
same,glycan array binding signal (z-score),[15],0.594
same,glycan array binding signal (z-score),[16],-0.223
same,glycan array binding signal (z-score),[17],-1.44
same,glycan array binding signal (z-score),[18],0.786
same,glycan array binding signal (z-score),[19],0.608
same,glycan array binding signal (z-score),[20],0.099
same,glycan array binding signal (z-score),[21],-0.188
same,glycan array binding signal (z-score),[22],-0.082
same,glycan array binding signal (z-score),[23],-0.978
same,glycan array binding signal (z-score),[24],-0.012
same,glycan array binding signal (z-score),[25],-1.2
same,glycan array binding signal (z-score),[26],-0.348
same,glycan array binding signal (z-score),[27],-0.313
same,glycan array binding signal (z-score),[28],-0.651
same,glycan array binding signal (z-score),[29],-0.442
same,glycan array binding signal (z-score),[30],0.299
same,glycan array binding signal (z-score),[31],-0.842
same,glycan array binding signal (z-score),[32],-0.264
same,glycan array binding signal (z-score),[33],-0.895
same,glycan array binding signal (z-score),[34],-0.398
same,glycan array binding signal (z-score),[35],-0.867
same,glycan array binding signal (z-score),[36],0.842
same,glycan array binding signal (z-score),[37],1.33

# Rewritten as tab-separated lines: part of the list above.
binder	measurement	setting	value
B1	glycan array binding signal (z-score)	[4]	-0.345
same	glycan array binding signal (z-score)	[10]	0.327
same	glycan array binding signal (z-score)	[20]	0.099
same	glycan array binding signal (z-score)	[22]	-0.082
same	glycan array binding signal (z-score)	[25]	-1.2
same	glycan array binding signal (z-score)	[32]	-0.264
